# Reference: PubChem BioAssay AID540256 (National Center for Advancing Translational Sciences (NCATS), 2011)
# In all, about 300,000 compounds went through this assay and about 3,700 (1.2%) were called active. Inconclusive means that the source gave no clear call. Such entries were picked first, then a sample of the others. The call rests on the fitted dose curve; tested in HEK293 cells. Potencies of inconclusive entries are doubtful fits and often do not repeat.
# Experiment: qHTS for Inhibitors of binding or entry into cells for Lassa Virus; further: nearly all actives have a fitted effect of over 50% in size
# Conditions: Lassa virus pseudotype entry inhibition, cell reporter; series mostly up to 37.9 µM
# Potency means the concentration at half of the fitted maximal effect.
row,Structure (SMILES),Potency
1,Nc1nonc1C(=O)NCCNCc1c(OCc2ccccc2F)ccc2ccccc12,"inconclusive: 29.1 µM [inhibitor, single point]"
2,COc1ccc(C2/C(=C(\O)c3cccc(OC)c3)C(=O)C(=O)N2c2ccccn2)cc1 (centres undefined),inactive
3,COc1ccc(-c2cc(C(=O)NCCc3ccc(OC)c(OC)c3)c3ccccc3n2)cc1,"inconclusive: 12.6 µM [inhibitor, partial curve, poor fit]"
4,CN1CCN(C(=O)CCCN2C(=O)/C(=C/c3cccc(Br)c3)SC2=S)CC1,"inconclusive: 6.31 µM [inhibitor, partial curve]"
5,CCOc1ccccc1N1CC(O)=C(c2nc3ccccc3s2)C1=N,"inconclusive: 3.26 µM [inhibitor, full curve]"
6,COc1ccc(NC(=O)C(C)Sc2cc(-c3ccccc3)nc(C)n2)cc1Cl (centres undefined),inactive
7,CN1CCN(C(=O)c2cnn(-c3ccccc3)c2NC(=O)c2ccc([N+](=O)[O-])cc2)CC1,"inconclusive: 5.62 µM [activator, single point]"
8,N/C(=N\OC(=O)c1cccc2ccccc12)c1cccc([N+](=O)[O-])c1,inactive
9,Cc1ccc(C)c(NC(=S)NCc2ccccc2)c1,"inconclusive: 3.16 µM [activator, single point]"
10,O=C(c1cc(-c2ccc(Br)cc2)on1)N1CCOCC1,active: 2.51 µM
11,CC(Nc1nc(N2CCN(CCO)CC2)nc2ccccc12)c1ccccc1 (centres undefined),"inconclusive: 15.8 µM [inhibitor, single point]"
12,CC1(C)COC(Nc2ccc(Cl)cc2)=N1,"inconclusive: 20.6 µM [activator, single point]"
13,O=C(CSC1c2ccccc2-c2ccccc21)N/N=C/c1ccccc1O,active: 11.6 µM
14,O=C(NC1CCCCCCC1)c1ccc(Br)o1,inactive
15,CCOc1ccc(N(C(C)C(=O)NCCSc2ccc(C)cc2)S(C)(=O)=O)cc1 (centres undefined),"inconclusive: 7.94 µM [inhibitor, partial curve, poor fit]"
16,Cc1ccc(S(=O)(=O)NCCC(=O)NNC(=O)c2ccccc2O)cc1C,inactive
17,O=C(/C=C/c1ccc(Br)cc1)c1ccc(NC2=NCCCS2)cc1,"inconclusive: 20.6 µM [inhibitor, single point]"
18,Fc1ccccc1C1c2[nH]c3ccccc3c2CCN1Cc1ccoc1 (centres undefined),"inconclusive: 10 µM [inhibitor, partial curve, poor fit]"
19,Cc1cccnc1NC(=O)c1sc2ccccc2c1Cl,"inconclusive: 20 µM [inhibitor, single point]"
20,CC(C)(C)n1nnnc1C(c1cccnc1)N1CCN(c2cccc(C(F)(F)F)c2)CC1 (centres undefined),"inconclusive: 25.1 µM [inhibitor, single point]"
21,CCn1c(-c2ccsc2)nc2c1c(=O)[nH]c(=O)n2Cc1ccccc1,"inconclusive: 29.1 µM [inhibitor, single point]"
22,Cc1cc(N2CCOCC2)n2nc(C(F)(F)F)c(-c3ccccc3)c2n1,"inconclusive: 35.5 µM [inhibitor, single point]"
23,Cc1ccc(NC(=O)COc2ccc(C(=O)c3ccccc3)cc2)c(O)c1,"inconclusive: 12.6 µM [inhibitor, partial curve, poor fit]"

# An excerpt of these results, bar-delimited.
row | Structure (SMILES) | Potency
15 | CCOc1ccc(N(C(C)C(=O)NCCSc2ccc(C)cc2)S(C)(=O)=O)cc1 (centres undefined) | inconclusive: 7.94 µM [inhibitor, partial curve, poor fit]
16 | Cc1ccc(S(=O)(=O)NCCC(=O)NNC(=O)c2ccccc2O)cc1C | inactive
17 | O=C(/C=C/c1ccc(Br)cc1)c1ccc(NC2=NCCCS2)cc1 | inconclusive: 20.6 µM [inhibitor, single point]
18 | Fc1ccccc1C1c2[nH]c3ccccc3c2CCN1Cc1ccoc1 (centres undefined) | inconclusive: 10 µM [inhibitor, partial curve, poor fit]

# The listing continues:

row,Structure (SMILES),Potency
1,Cc1cccc(C)c1OCc1nc2ccccc2[nH]1,inactive
2,CCc1sc(C(=O)Nc2ncccc2C)cc1C,inactive
3,CCN(CC)S(=O)(=O)c1ccc(/C=C/C(=O)Nc2cccc(F)c2)cc1,"inconclusive: 8.91 µM [inhibitor, partial curve, poor fit]"
4,CC(C)(C)NC(=S)NNC(=O)c1ccncc1,"inconclusive: 0.891 µM [inhibitor, partial curve, poor fit]"
5,O=c1[nH]c(C(F)(F)F)nc2ccc3ccccc3c12,"inconclusive: 35.5 µM [inhibitor, single point]"
6,COc1ccc(S(=O)(=O)Nc2cc3c(cc2N2CCOCC2)n(C)c(=O)n3C)cc1,"inconclusive: 1.41 µM [inhibitor, partial curve, poor fit]"
7,CC(Sc1nnc(N)s1)C(=O)Nc1nccs1 (centres undefined),"inconclusive: 35.5 µM [activator, single point]"
8,COc1ccc(Cn2nnnc2C(c2ccc(F)cc2)N2CCN(C3CCCC3)CC2)cc1 (centres undefined),"inconclusive: 7.94 µM [inhibitor, partial curve, poor fit]"
9,COc1cccc(NC(=O)c2ccc3[nH]c(C)cc(=O)c3c2)c1,"inconclusive: 2.82 µM [inhibitor, single point]"
10,COc1cc(NC(=S)Nc2ccc3c(c2)OCCO3)cc(OC)c1OC,"inconclusive: 1.26 µM [inhibitor, single point]"
11,COc1ccc(-n2nnnc2SCC(=O)Nc2ccc3c(c2)OCCO3)c(OC)c1,"inconclusive: 29.1 µM [inhibitor, single point]"
12,CSc1nc(O)c(C(c2ccc(OC(C)C)cc2)c2c(O)nc(SC)[nH]c2=O)c(=O)[nH]1,inactive
13,Fc1ccccc1Cn1c2[n+](c3ccc(C(F)(F)F)cc31)CCCCC2,inactive
14,CCC1CCc2nc3sc(C(=O)Nc4cccc(C(F)(F)F)c4)c(N)c3cc2C1 (centres undefined),"inconclusive: 35.5 µM [inhibitor, single point]"
15,CCc1nn2c(=O)cc(COC(=O)c3ccc(NC(=O)C4CCCCC4)cc3)nc2s1,inactive
16,COc1ccc(-c2noc(-c3ccc(NC4CCCCC4)c([N+](=O)[O-])c3)n2)cc1,inactive
17,O=C(COc1ccc(F)cc1)Nc1ccccc1OCc1cc(=O)n2ccccc2n1,inactive
18,O=C(c1ccco1)N1CCN(CC(O)COc2ccc3oc4ccccc4c3c2)CC1 (centres undefined),"inconclusive: 13 µM [inhibitor, partial curve, poor fit]"
19,O=C(CSC(=S)N1CCCCC1)c1ccccc1,"inconclusive: 1.78 µM [inhibitor, full curve, poor fit]"
20,COc1ccc(NC(=O)NC23CC4(C)CC(C)(CC(C)(C4)C2)C3)cc1OC,"inconclusive: 14.6 µM [inhibitor, partial curve, poor fit]"
21,Cc1nc2cc(NC(=O)c3cccc(S(C)(=O)=O)c3)ccc2o1,"inconclusive: 0.631 µM [inhibitor, single point]"
22,CCCCCCCCn1cnc2c(N)c(C)c(C)cc21,"inconclusive: 2.59 µM [inhibitor, full curve]"
23,COc1ccc(N2CCN(C(=O)c3sc4nc5n(c(=O)c4c3C)CCC5)CC2)cc1,inactive

row,Structure (SMILES),Potency
1,C=CCNC(=S)N(Cc1ccccc1)Cc1ccc(F)cc1,"inconclusive: 20 µM [inhibitor, partial curve, poor fit]"
2,CCOc1cc(C(=O)NC)cc(Br)c1OC,inactive
3,CC1CC(=O)c2cnc(NCc3ccco3)nc2C1 (centres undefined),"inconclusive: 6.31 µM [activator, single point]"
4,COc1ccccc1C(=O)Nc1ccccn1,"inconclusive: 0.13 µM [activator, full curve, poor fit]"
5,COc1ccc(Cc2nc3ccc(C(=O)NCCCN4CCN(C)CC4)cc3o2)cc1,"inconclusive: 5.62 µM [activator, partial curve, poor fit]"
6,NC(=O)c1c(NC(=O)c2cccs2)sc2c1CCCCCC2,"inconclusive: 0.517 µM [activator, full curve, poor fit]"
7,N#Cc1nccnc1S(=O)(=O)c1cccs1,inactive
8,O=C(C[n+]1cc2ccccc2c2ccccc21)c1ccccc1,"inconclusive: 35.5 µM [inhibitor, single point]"
9,COc1ccc2c(CCN)c[nH]c2c1,inactive
10,Cc1cc(C(=O)CSc2n[nH]c(N)n2)c(C)n1-c1ccccc1,inactive
11,Cc1cc(NCc2ccccn2)n2nc(C)c(-c3ccccc3)c2n1,"inconclusive: 7.94 µM [inhibitor, partial curve, poor fit]"
12,CC(C)=CCC(C)(C)CNC(=O)NC1CCCCC1,"inconclusive: 11.2 µM [inhibitor, partial curve, poor fit]"
13,COc1ccccc1-n1c(SCc2cc(=O)oc3cc(O)ccc23)nc2ccccc2c1=O,"inconclusive: 12.6 µM [inhibitor, single point]"
14,O=C(C=Cc1ccccn1)c1ccccc1,"inconclusive: 22.4 µM [inhibitor, single point]"
15,Cc1ccc(Oc2cnn(-c3ccccc3)c(=O)c2Br)cc1,"inconclusive: 14.1 µM [inhibitor, partial curve, poor fit]"
16,CN(CCCCCCCCC(=O)/C=N/O)Cc1ccccc1,"inconclusive: 4.11 µM [activator, single point]"
17,CCn1c(=O)c(=O)[nH]c2cc(C(=O)NC3CCCc4ccccc43)ccc21 (centres undefined),"inconclusive: 29.1 µM [inhibitor, single point]"
18,CCOC(=O)c1ccc(N2C(=O)Cc3cc(OCC)c(OCC)cc3C2c2ccccc2)cc1 (centres undefined),"inconclusive: 7.94 µM [inhibitor, partial curve, poor fit]"
19,O=C(c1ccc2c(c1)OCCO2)N(Cc1cccnc1)c1nc2c(F)cc(F)cc2s1,"inconclusive: 35.5 µM [inhibitor, single point]"
20,CCOc1ccccc1NC(=O)NNC(=O)CCc1ccc(OC)cc1,"inconclusive: 31.6 µM [inhibitor, single point]"
21,Cc1csc2c(N3CCN(C(=O)Nc4ccc(OC(F)(F)F)cc4)CC3)ncnc12,inactive
22,O=c1c(-c2nnc(SCc3ccc(Cl)c(Cl)c3)o2)cccn1Cc1ccccc1,"inconclusive: 17.8 µM [inhibitor, single point]"
23,O=c1cc(-c2ccccc2)nc(N2CCN(Cc3ccc4c(c3)OCO4)CC2)[nH]1,"inconclusive: 5.01 µM [inhibitor, partial curve, poor fit]"
